# Measurements as given in the supplement of paper PMC8728848.
# This is one part of the list.
# B1: MIC2 (Toxoplasma gondii), S8F9G8 (protein)
# chain: MRLQREAVFGLMFACGMWMWPSEVAGGGWSIVDALRKRYDTSRGGDANGVDTSGVEDVIQSESAIGAAEGCTNQLDICFLIDSSGSIGIQNFRLVKQFLHTFLMVLPIGPEEVNNAVVTYSTDVHLQWDLQSPNAVDKQLAAHAVLDMPYKKGSTNTSDGLKACKQILFTGSRPGREHVPKLVIGMTDGESDSDFRTVRAAKEIRELGGIVTVLAVGHYVKHSECRSMCGCSGTSDDDSPCPLYLRADWGQLATAIKPMLKEVCKTLPQDAICSDWSAWSPCSVSCGDGSQIRTRTEVSAPQPGTPTCPDCPAPMGRTCVEQGGLEEIRECSAGVCAVDAGCGVWGEWSAWSASCGNATRKRERTRYNDPPPQGAGRRCENQDPPVLQEQTEEATLAPCITIPPTPPEWAAWSDCTVTCGGGNRHRVRNALPPGLGSQNGESDESLVSKLWPGTDLRQEEACNTSPCPINATCGQFEEWSTCSVSCGGGLKTRSRNPWNEDQQHGGLSCEQQHPGGRTETITCNPQACPVDERPGEWAEWGECSVTCGDGVRERRRGKSLVEAKFGGRTIDQQNEALPEDLKIKNVEYEPCSYPACGASCTYVWSDWNKCVCPMGYQARHAAVKFDYRNKPCDLPTFETKACSCGETNPVPSEGTTPGAPGATGPEQPNQRPLPEGSDENETPTNEEGEQSKKESGSGIAGAIAGGVIGGLILLGAAGGASYHYYLSSSVGSPSAEIEYEADDGATKVVMEEEKETLVPVDDDSDMWME
# What was measured:
# Experiment in all cases: glycan array binding signal (z-score within array); higher = stronger binding
# Settings in all cases: glycan notation: IUPAC condensed, linker removed
# [1] = target: Fuc(a1-3)[Gal3S(b1-4)]GlcNAc
# In short: (§1)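 The Consortium for Functional Glycomics database supplied 3228 glycan arrays, of which those lacking an available protein sequence were dropped. The binding signal, a within-array Z-score, was averaged across arrays of the same protein sequence and across linkers. Negative scores can be read as non-binding.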
# [2] = target: Fuc(a1-3)[Gal3S(b1-4)]GlcNAc6S
# In short: as §1
# [3] = target: Fuc(a1-3)[GalNAc(b1-4)]GlcNAc
# In short: as §1
# Fuc(a1-4)GlcNAc = target: Fuc(a1-4)GlcNAc
# In short: as §1
# Fuc(b1-3)GlcNAc = target: Fuc(b1-3)GlcNAc
# In short: as §1
# Gal(a1-2)Gal = target: Gal(a1-2)Gal
# In short: as §1
# Gal(a1-3)Gal = target: Gal(a1-3)Gal
# In short: as §1
# Gal(a1-3)Gal(b1-3)GlcNAc = target: Gal(a1-3)Gal(b1-3)GlcNAc
# In short: as §1
# [4] = target: Gal(a1-3)Gal(b1-3)GlcNAc(b1-2)Man(a1-3)[Gal(a1-3)Gal(b1-3)GlcNAc(b1-2)Man(a1-6)]Man(b1-4)GlcNAc(b1-4)GlcNAc
# In short: as §1
# [5] = target: Gal(a1-3)Gal(b1-3)[Fuc(a1-4)]GlcNAc(b1-2)Man(a1-3)[Gal(a1-3)Gal(b1-3)[Fuc(a1-4)]GlcNAc(b1-2)Man(a1-6)]Man(b1-4)GlcNAc(b1-4)GlcNAc
# In short: as §1
# Gal(a1-3)Gal(b1-4)Glc = target: Gal(a1-3)Gal(b1-4)Glc
# In short: as §1
# Gal(a1-3)Gal(b1-4)GlcNAc = target: Gal(a1-3)Gal(b1-4)GlcNAc
# In short: as §1
# [6] = target: Gal(a1-3)Gal(b1-4)GlcNAc(b1-3)GalNAc
# In short: as §1
# [7] = target: Gal(a1-3)Gal(b1-4)[Fuc(a1-3)]GlcNAc
# In short: as §1
# [8] = target: Gal(a1-3)Gal(b1-4)[Fuc(a1-3)]GlcNAc(b1-2)Man(a1-3)[Gal(a1-3)Gal(b1-4)[Fuc(a1-3)]GlcNAc(b1-2)Man(a1-6)]Man(b1-4)GlcNAc(b1-4)GlcNAc
# In short: as §1
# Gal(a1-3)GalNAc = target: Gal(a1-3)GalNAc
# In short: as §1
# [9] = target: Gal(a1-3)[Gal(a1-4)]Gal(b1-4)GlcNAc
# In short: as §1
# [10] = target: Gal(a1-4)Gal(b1-3)GlcNAc(b1-2)Man(a1-3)[Gal(a1-4)Gal(b1-3)GlcNAc(b1-2)Man(a1-6)]Man(b1-4)GlcNAc(b1-4)GlcNAc
# In short: as §1
# Gal(a1-4)Gal(b1-4)Glc = target: Gal(a1-4)Gal(b1-4)Glc
# In short: as §1
# Gal(a1-4)Gal(b1-4)GlcNAc = target: Gal(a1-4)Gal(b1-4)GlcNAc
# In short: as §1
# [11] = target: Gal(a1-4)Gal(b1-4)GlcNAc(b1-2)Man(a1-3)[Gal(a1-4)Gal(b1-4)GlcNAc(b1-2)Man(a1-6)]Man(b1-4)GlcNAc(b1-4)GlcNAc
# In short: as §1
# [12] = target: Gal(a1-4)Gal(b1-4)GlcNAc(b1-3)Gal(b1-4)Glc
# In short: as §1
# Gal(a1-4)GlcNAc = target: Gal(a1-4)GlcNAc
# In short: as §1
# Gal(a1-6)Glc = target: Gal(a1-6)Glc
# In short: as §1
# Gal(b1-2)Gal = target: Gal(b1-2)Gal
# In short: as §1
# Gal(b1-3)Gal = target: Gal(b1-3)Gal
# In short: as §1
# Gal(b1-3)Gal(b1-4)GlcNAc = target: Gal(b1-3)Gal(b1-4)GlcNAc
# In short: as §1
# [13] = target: Gal(b1-3)Gal(b1-4)GlcNAc(b1-2)Man(a1-3)[Gal(b1-3)Gal(b1-4)GlcNAc(b1-2)Man(a1-6)]Man(b1-4)GlcNAc(b1-4)GlcNAc
# In short: as §1
# Gal(b1-3)GalNAc = target: Gal(b1-3)GalNAc
# In short: as §1
# [14] = target: Gal(b1-3)GalNAc(a1-3)[Fuc(a1-2)]Gal(b1-4)Glc
# In short: as §1
# [15] = target: Gal(b1-3)GalNAc(a1-3)[Fuc(a1-2)]Gal(b1-4)GlcNAc
# In short: as §1
# [16] = target: Gal(b1-3)GalNAc(b1-3)Gal(a1-4)Gal(b1-4)Glc
# In short: as §1
# [17] = target: Gal(b1-3)GalNAc(b1-4)Gal(b1-4)Glc
# In short: as §1
# [18] = target: Gal(b1-3)GalNAc(b1-4)[Neu5Ac(a2-3)]Gal(b1-4)Glc
# In short: as §1
# Gal(b1-3)GlcNAc = target: Gal(b1-3)GlcNAc
# In short: as §1
# [19] = target: Gal(b1-3)GlcNAc(a1-6)Gal(b1-4)GlcNAc
# In short: as §1
# [20] = target: Gal(b1-3)GlcNAc(b1-2)Man(a1-3)[Gal(b1-3)GlcNAc(b1-2)Man(a1-6)]Man(b1-4)GlcNAc(b1-4)GlcNAc
# In short: as §1
# [21] = target: Gal(b1-3)GlcNAc(b1-2)Man(a1-3)[Gal(b1-3)GlcNAc(b1-2)Man(a1-6)]Man(b1-4)GlcNAc(b1-4)[Fuc(a1-6)]GlcNAc
# In short: as §1
# [22] = target: Gal(b1-3)GlcNAc(b1-3)Gal(b1-3)GlcNAc
# In short: as §1
# [23] = target: Gal(b1-3)GlcNAc(b1-3)Gal(b1-4)Glc
# In short: as §1
# [24] = target: Gal(b1-3)GlcNAc(b1-3)Gal(b1-4)GlcNAc
# In short: as §1
# [25] = target: Gal(b1-3)GlcNAc(b1-3)Gal(b1-4)GlcNAc(b1-6)[Gal(b1-3)GlcNAc(b1-3)]Gal(b1-4)Glc
# In short: as §1
# [26] = target: Gal(b1-3)GlcNAc(b1-3)Gal(b1-4)[Fuc(a1-3)]GlcNAc(b1-6)[Gal(b1-3)GlcNAc(b1-3)]Gal(b1-4)Glc
# In short: as §1
# [27] = target: Gal(b1-3)GlcNAc(b1-3)GalNAc
# In short: as §1
# [28] = target: Gal(b1-3)GlcNAc(b1-6)Gal(b1-4)GlcNAc
# In short: as §1
# [29] = target: Gal(b1-3)[Fuc(a1-4)]GlcNAc
# In short: as §1
# [30] = target: Gal(b1-3)[Fuc(a1-4)]GlcNAc(b1-2)Man(a1-3)[Gal(b1-3)[Fuc(a1-4)]GlcNAc(b1-2)Man(a1-6)]Man(b1-4)GlcNAc(b1-4)GlcNAc
# In short: as §1
# [31] = target: Gal(b1-3)[Fuc(a1-4)]GlcNAc(b1-2)Man(a1-3)[Gal(b1-3)[Fuc(a1-4)]GlcNAc(b1-2)Man(a1-6)]Man(b1-4)GlcNAc(b1-4)[Fuc(a1-6)]GlcNAc
# In short: as §1
# [32] = target: Gal(b1-3)[Fuc(a1-4)]GlcNAc(b1-3)Gal(b1-3)[Fuc(a1-4)]GlcNAc
# In short: as §1
# [33] = target: Gal(b1-3)[Fuc(a1-4)]GlcNAc(b1-3)Gal(b1-4)GlcNAc
# In short: as §1
# [34] = target: Gal(b1-3)[Fuc(a1-4)]GlcNAc(b1-3)Gal(b1-4)[Fuc(a1-3)]GlcNAc
# In short: as §1
# [35] = target: Gal(b1-3)[GlcNAc(b1-6)]GalNAc
# In short: as §1
# [36] = target: Gal(b1-3)[Neu5Ac(a2-6)]GalNAc
# In short: as §1
# [37] = target: Gal(b1-3)[Neu5Ac(a2-6)]GlcNAc(b1-6)Gal(b1-4)Glc
# In short: as §1
# [38] = target: Gal(b1-3)[Neu5Ac(b2-6)]GalNAc
# In short: as §1
# [39] = target: Gal(b1-4)GalNAc(a1-3)[Fuc(a1-2)]Gal(b1-4)GlcNAc
# In short: as §1
# [40] = target: Gal(b1-4)GalNAc(b1-3)[Fuc(a1-2)]Gal(b1-4)GlcNAc
# In short: as §1
# Gal(b1-4)Glc = target: Gal(b1-4)Glc
# In short: as §1
# Gal(b1-4)Glc6S = target: Gal(b1-4)Glc6S
# In short: as §1
# Gal(b1-4)GlcNAc = target: Gal(b1-4)GlcNAc
# In short: as §1
binder,measurement,setting,value
B1,glycan array binding signal (z-score),[1],-0.031
same,glycan array binding signal (z-score),[2],3.68
same,glycan array binding signal (z-score),[3],1.07
same,glycan array binding signal (z-score),Fuc(a1-4)GlcNAc,0.126
same,glycan array binding signal (z-score),Fuc(b1-3)GlcNAc,0.622
same,glycan array binding signal (z-score),Gal(a1-2)Gal,0.018
same,glycan array binding signal (z-score),Gal(a1-3)Gal,-0.528
same,glycan array binding signal (z-score),Gal(a1-3)Gal(b1-3)GlcNAc,0.259
same,glycan array binding signal (z-score),[4],1.23
same,glycan array binding signal (z-score),[5],-0.391
same,glycan array binding signal (z-score),Gal(a1-3)Gal(b1-4)Glc,-0.31
same,glycan array binding signal (z-score),Gal(a1-3)Gal(b1-4)GlcNAc,-0.181
same,glycan array binding signal (z-score),[6],0.738
same,glycan array binding signal (z-score),[7],-0.378
same,glycan array binding signal (z-score),[8],-0.581
same,glycan array binding signal (z-score),Gal(a1-3)GalNAc,0.545
same,glycan array binding signal (z-score),[9],-0.891
same,glycan array binding signal (z-score),[10],-0.296
same,glycan array binding signal (z-score),Gal(a1-4)Gal(b1-4)Glc,-1.03
same,glycan array binding signal (z-score),Gal(a1-4)Gal(b1-4)GlcNAc,-0.915
same,glycan array binding signal (z-score),[11],-0.941
same,glycan array binding signal (z-score),[12],0.229
same,glycan array binding signal (z-score),Gal(a1-4)GlcNAc,-0.17
same,glycan array binding signal (z-score),Gal(a1-6)Glc,1.43
same,glycan array binding signal (z-score),Gal(b1-2)Gal,0.185
same,glycan array binding signal (z-score),Gal(b1-3)Gal,0.049
same,glycan array binding signal (z-score),Gal(b1-3)Gal(b1-4)GlcNAc,-0.903
same,glycan array binding signal (z-score),[13],0.013
same,glycan array binding signal (z-score),Gal(b1-3)GalNAc,0.256
same,glycan array binding signal (z-score),[14],0.186
same,glycan array binding signal (z-score),[15],0.169
same,glycan array binding signal (z-score),[16],0.459
same,glycan array binding signal (z-score),[17],0.057
same,glycan array binding signal (z-score),[18],0.618
same,glycan array binding signal (z-score),Gal(b1-3)GlcNAc,-0.655
same,glycan array binding signal (z-score),[19],-0.214
same,glycan array binding signal (z-score),[20],-0.698
same,glycan array binding signal (z-score),[21],1.61
same,glycan array binding signal (z-score),[22],-0.795
same,glycan array binding signal (z-score),[23],-0.513
same,glycan array binding signal (z-score),[24],0.477
same,glycan array binding signal (z-score),[25],-0.45
same,glycan array binding signal (z-score),[26],-0.965
same,glycan array binding signal (z-score),[27],-0.163
same,glycan array binding signal (z-score),[28],-0.04
same,glycan array binding signal (z-score),[29],-0.077
same,glycan array binding signal (z-score),[30],-0.749
same,glycan array binding signal (z-score),[31],-0.433
same,glycan array binding signal (z-score),[32],-0.718
same,glycan array binding signal (z-score),[33],-0.085
same,glycan array binding signal (z-score),[34],0.177
same,glycan array binding signal (z-score),[35],-0.743
same,glycan array binding signal (z-score),[36],-0.695
same,glycan array binding signal (z-score),[37],-0.102
same,glycan array binding signal (z-score),[38],-0.412
same,glycan array binding signal (z-score),[39],-0.048
same,glycan array binding signal (z-score),[40],0.025
same,glycan array binding signal (z-score),Gal(b1-4)Glc,-0.371
same,glycan array binding signal (z-score),Gal(b1-4)Glc6S,1.28
same,glycan array binding signal (z-score),Gal(b1-4)GlcNAc,0.256

# Rewritten tab-delimited: part of the list above
binder	measurement	setting	value
B1	glycan array binding signal (z-score)	Gal(a1-3)GalNAc	0.545
same	glycan array binding signal (z-score)	[10]	-0.296
same	glycan array binding signal (z-score)	[26]	-0.965
same	glycan array binding signal (z-score)	[32]	-0.718
